PubChem BioAssay AID1259314, Drosophila RNAi Screening Center | 2017

Screen: 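Transmembrane protein genes affecting ATP after manganese overload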 (primary screen)
Cell system: Drosophila S2R+ cells
Reagent: long dsRNA against Drosophila genes
Time to read-out: 5 days (4 days knock-down, then 1 day metal exposure)
Challenge: manganese chloride added to 15 mM for 24 hours
Measured: 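Cellular ATP measured by luciferase light, scaled to the plate mean, averaged across replicates and z-scored over plates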
Direction: mean ATP z-score: higher = more ATP than the plate average, more viable cells under manganese
Active means: 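a mean ATP z-score past 1.5 in either direction is called active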
Meaning of the calls: active = strong ATP change, up or down; inactive = no strong ATP change
In all, the deposit lists about 3,100 reagents; this is a random part of them. Over the whole deposit, 289 (9.3%) are marked active. 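Active includes both higher and lower ATP than plate average; check the z-score sign for direction.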 The numbers tell different reagents against one gene apart. A plus sign joins genes that one reagent is predicted to hit. Not stated in the record: the amount of reagent.

For Ptp4E #1 the deposit lists mean ATP z-score -0.0392; inactive.
Ptp4E #2 gave mean ATP z-score -0.148; inactive.
Ptp4E #3 showed mean ATP z-score -0.201; inactive.
Indy gave mean ATP z-score -0.634; inactive.
After knock-down of PGRP-SB1 the results were mean ATP z-score -0.741; inactive.
Silencing of l(1)1Bb + ebo #1 came out at: mean ATP z-score 0.988; inactive.
Depletion of l(1)1Bb + ebo #2 came out at: mean ATP z-score 0.0871; inactive.
After knock-down of CG7992 the results were mean ATP z-score -0.112; inactive.
With knock-down of CHOp24 #1 the results were mean ATP z-score 0.58; inactive.
With knock-down of CHOp24 #2 the results were mean ATP z-score 1.64; active.
Grd #1 showed mean ATP z-score -1.37; inactive.
Grd #2 gave mean ATP z-score 0.895; inactive.
Depletion of GluRIB #1 gave: mean ATP z-score -1.64; active.
Against GluRIB #2 the deposit lists mean ATP z-score -1.5; active.
With knock-down of Serinc, the record shows mean ATP z-score 0.422; inactive.
Knock-down of Nox #1 gave: mean ATP z-score 0.00974; inactive.
Depletion of Nox #2 came out at: mean ATP z-score 0.564; inactive.
Against Nox #3, the entry reads mean ATP z-score -0.191; inactive.
Tspo + rempA showed mean ATP z-score 0.553; inactive.
Tom20 scored mean ATP z-score -0.31; inactive.
For TyrRII, the entry reads mean ATP z-score -0.796; inactive.
After knock-down of Ptr #1 the results were mean ATP z-score -0.368; inactive.
For Ptr #2 the deposit lists mean ATP z-score -0.417; inactive.
Elo68beta gave mean ATP z-score 1.43; inactive.
For ATPsynbetaL #1 the deposit lists mean ATP z-score -0.842; inactive.
Depletion of ATPsynbetaL #2 gave: mean ATP z-score -0.22; inactive.
For Arv1 the deposit lists mean ATP z-score 0.393; inactive.
For CG30379 #1, the values are mean ATP z-score -0.0617; inactive.
After knock-down of CG30379 #2, the screen gave mean ATP z-score -0.0115; inactive.
For PGRP-LE the deposit lists mean ATP z-score 0.672; inactive.
path #1 showed mean ATP z-score -1.84; active.
path #2 showed mean ATP z-score 0.582; inactive.
Depletion of CG14856 gave: mean ATP z-score -0.0746; inactive.
Against Sec24CD, the entry reads mean ATP z-score 0.579; inactive.
After knock-down of Duox #1, the screen gave mean ATP z-score 0.0914; inactive.
After knock-down of Duox #2 the results were mean ATP z-score 0.717; inactive.
Against sut1 the deposit lists mean ATP z-score -0.208; inactive.
After knock-down of mthl13, the record shows mean ATP z-score 0.019; inactive.
Against Ctr1C #1, the values are mean ATP z-score 0.439; inactive.
With knock-down of Ctr1C #2 the results were mean ATP z-score -0.618; inactive.
mthl7 #1 showed mean ATP z-score -0.363; inactive.
With knock-down of mthl7 #2, the screen gave mean ATP z-score 0.745; inactive.
Ir100a #1 showed mean ATP z-score 0.356; inactive.
After knock-down of Ir100a #2 the results were mean ATP z-score 1.32; inactive.
Against CG5906 the deposit lists mean ATP z-score -0.767; inactive.
With knock-down of cdm, the record shows mean ATP z-score 0.793; inactive.
Knock-down of FMRFaR came out at: mean ATP z-score -0.252; inactive.

Active calls, among the entries above:
CHOp24 #2 — mean ATP z-score = 1.64; activity call = active
GluRIB #1 — mean ATP z-score = -1.64; activity call = active
GluRIB #2 — mean ATP z-score = -1.5; activity call = active
path #1 — mean ATP z-score = -1.84; activity call = active
